Experimental data published in article PMC4441422.
These are yes or no findings as the source states them, for the method shown.

Target: T1, full-length catalytic domain of human N-myristoyltransferase 1 (hNMT1s) (human) (UniProt P30419)
T1 sequence: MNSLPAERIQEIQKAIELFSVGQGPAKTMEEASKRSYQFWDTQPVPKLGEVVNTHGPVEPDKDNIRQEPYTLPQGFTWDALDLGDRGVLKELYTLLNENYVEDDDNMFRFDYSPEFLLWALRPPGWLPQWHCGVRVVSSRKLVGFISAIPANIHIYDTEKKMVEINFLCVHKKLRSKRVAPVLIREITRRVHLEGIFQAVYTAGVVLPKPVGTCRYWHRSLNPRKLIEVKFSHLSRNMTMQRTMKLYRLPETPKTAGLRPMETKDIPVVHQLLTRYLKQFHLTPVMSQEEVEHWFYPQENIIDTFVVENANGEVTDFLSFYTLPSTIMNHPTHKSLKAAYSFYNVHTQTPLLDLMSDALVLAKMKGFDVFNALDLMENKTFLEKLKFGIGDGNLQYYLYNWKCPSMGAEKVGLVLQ
Test: SEC; Superdex 75 gel filtration, 50 mM sodium phosphate pH 7.2, 150 mM NaCl, 1 mM EGTA, 1 mM EDTA; elution compared with ovalbumin (43.0 kDa); both purified

binding: no binding
B1: full-length catalytic domain of human N-myristoyltransferase 1 (hNMT1s) (domain or fragment, UniProt P30419 81-496)
chain: T1 sequence
